This passage reports binding results from PMC8901301.

Sequences of proteins named here, by UniProt entry; tags and fusion partners are left off.
UniProt P53667: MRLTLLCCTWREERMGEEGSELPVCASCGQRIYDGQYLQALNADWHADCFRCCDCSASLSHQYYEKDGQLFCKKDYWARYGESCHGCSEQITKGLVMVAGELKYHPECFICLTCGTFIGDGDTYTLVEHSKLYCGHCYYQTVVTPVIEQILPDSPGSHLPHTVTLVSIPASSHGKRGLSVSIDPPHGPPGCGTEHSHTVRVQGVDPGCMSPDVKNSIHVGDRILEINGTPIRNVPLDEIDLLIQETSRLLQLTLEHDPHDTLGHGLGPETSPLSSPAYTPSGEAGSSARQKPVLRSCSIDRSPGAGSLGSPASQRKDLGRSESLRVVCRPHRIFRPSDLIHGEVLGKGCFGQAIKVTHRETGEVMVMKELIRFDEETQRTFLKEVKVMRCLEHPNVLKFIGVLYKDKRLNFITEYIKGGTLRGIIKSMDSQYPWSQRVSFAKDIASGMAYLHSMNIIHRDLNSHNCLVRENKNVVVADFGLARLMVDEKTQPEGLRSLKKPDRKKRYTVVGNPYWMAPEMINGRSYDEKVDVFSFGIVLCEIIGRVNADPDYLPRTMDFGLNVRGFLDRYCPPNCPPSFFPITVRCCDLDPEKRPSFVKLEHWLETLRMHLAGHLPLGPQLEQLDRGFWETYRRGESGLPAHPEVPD
UniProt O00506: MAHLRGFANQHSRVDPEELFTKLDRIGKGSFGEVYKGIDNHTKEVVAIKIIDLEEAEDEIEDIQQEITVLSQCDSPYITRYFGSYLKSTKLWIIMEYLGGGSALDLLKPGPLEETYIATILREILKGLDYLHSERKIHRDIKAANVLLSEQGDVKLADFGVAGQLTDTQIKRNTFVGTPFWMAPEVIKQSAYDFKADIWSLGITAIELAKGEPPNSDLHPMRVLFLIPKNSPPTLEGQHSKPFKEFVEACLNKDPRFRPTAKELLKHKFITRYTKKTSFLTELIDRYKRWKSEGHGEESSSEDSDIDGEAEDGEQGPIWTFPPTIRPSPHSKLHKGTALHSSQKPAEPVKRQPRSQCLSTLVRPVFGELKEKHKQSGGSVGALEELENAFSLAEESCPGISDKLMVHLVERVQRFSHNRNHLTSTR

This assay concerns the target LIMK1 (UniProt P53667). Kind of assay: co-IP; no method section for the co-IP; cells, precipitated protein and antibodies not stated.

Results are given in words; binding and its absence hold for the method and conditions named. In cells and extracts the contact can be indirect. Some binding calls cover weakened binding; strength is not graded here.

As to STK25 (from UniProt O00506 1-426), the binding entry is recorded as “binds”.
